ChEMBL document CHEMBL4316593 (Eur J Med Chem, 2019)
This continues a long series; more values of the same kind are listed elsewhere.

Legend:
Assay type in all cases: cell-based
Conditions in all cases: U-87MG ATCC
[1] = Inhibition of RTK/PI3K/AKT/mTOR signaling in human U87 cells assessed as down regulation of membrane associated ring-CH-type finger 3 gene expression at cytotoxic IC50 measured after 48 hrs relative to control
[2] = Inhibition of RTK/PI3K/AKT/mTOR signaling in human U87 cells assessed as down regulation of ZNF596 gene expression at cytotoxic IC50 measured after 48 hrs relative to control
[3] = Inhibition of RTK/PI3K/AKT/mTOR signaling in human U87 cells assessed as down regulation of GADD45A gene expression at cytotoxic IC50 measured after 48 hrs relative to control
[4] = Inhibition of RTK/PI3K/AKT/mTOR signaling in human U87 cells assessed as down regulation of BPGM gene expression at cytotoxic IC50 measured after 48 hrs relative to control
[5] = Inhibition of RTK/PI3K/AKT/mTOR signaling in human U87 cells assessed as down regulation of EXT1 gene expression at cytotoxic IC50 measured after 48 hrs relative to control
[6] = Inhibition of RTK/PI3K/AKT/mTOR signaling in human U87 cells assessed as down regulation of CTSA gene expression at cytotoxic IC50 measured after 48 hrs relative to control
[7] = Inhibition of RTK/PI3K/AKT/mTOR signaling in human U87 cells assessed as down regulation of CAMSAP1 gene expression at cytotoxic IC50 measured after 48 hrs relative to control
[8] = Inhibition of RTK/PI3K/AKT/mTOR signaling in human U87 cells assessed as down regulation of TRAF6 gene expression at cytotoxic IC50 measured after 48 hrs relative to control
[9] = Inhibition of RTK/PI3K/AKT/mTOR signaling in human U87 cells assessed as down regulation of SPECC1 gene expression at cytotoxic IC50 measured after 48 hrs relative to control
[10] = Inhibition of RTK/PI3K/AKT/mTOR signaling in human U87 cells assessed as down regulation of RNF40 gene expression at cytotoxic IC50 measured after 48 hrs relative to control
[11] = Inhibition of RTK/PI3K/AKT/mTOR signaling in human U87 cells assessed as down regulation of SUGT1 gene expression at cytotoxic IC50 measured after 48 hrs relative to control
[12] = Inhibition of RTK/PI3K/AKT/mTOR signaling in human U87 cells assessed as down regulation of ZNF711 gene expression at cytotoxic IC50 measured after 48 hrs relative to control
[13] = Inhibition of RTK/PI3K/AKT/mTOR signaling in human U87 cells assessed as down regulation of CAPRIN2 gene expression at cytotoxic IC50 measured after 48 hrs relative to control
[14] = Inhibition of RTK/PI3K/AKT/mTOR signaling in human U87 cells assessed as down regulation of ATP6V1H gene expression at cytotoxic IC50 measured after 48 hrs relative to control
[15] = Inhibition of RTK/PI3K/AKT/mTOR signaling in human U87 cells assessed as down regulation of PSMC5 gene expression at cytotoxic IC50 measured after 48 hrs relative to control
[16] = Inhibition of RTK/PI3K/AKT/mTOR signaling in human U87 cells assessed as down regulation of HTATSF1 gene expression at cytotoxic IC50 measured after 48 hrs relative to control
[17] = Inhibition of RTK/PI3K/AKT/mTOR signaling in human U87 cells assessed as down regulation of KIF5B gene expression at cytotoxic IC50 measured after 48 hrs relative to control
[18] = Inhibition of RTK/PI3K/AKT/mTOR signaling in human U87 cells assessed as up regulation of SEMA4B gene expression at cytotoxic IC50 measured after 48 hrs relative to control
[19] = Inhibition of RTK/PI3K/AKT/mTOR signaling in human U87 cells assessed as up regulation of fucosyltransferase 11 gene expression at cytotoxic IC50 measured after 48 hrs relative to control
[20] = Inhibition of RTK/PI3K/AKT/mTOR signaling in human U87 cells assessed as up regulation of methylthioadenosine phosphorylase gene expression at cytotoxic IC50 measured after 48 hrs relative to control
[21] = Inhibition of RTK/PI3K/AKT/mTOR signaling in human U87 cells assessed as up regulation of neurexophilin 4 gene expression at cytotoxic IC50 measured after 48 hrs relative to control
[22] = Inhibition of RTK/PI3K/AKT/mTOR signaling in human U87 cells assessed as up regulation of EH domain binding protein 1 like 1 gene expression at cytotoxic IC50 measured after 48 hrs relative to control
[23] = Inhibition of RTK/PI3K/AKT/mTOR signaling in human U87 cells assessed as up regulation of proteolipid protein 2 gene expression at cytotoxic IC50 measured after 48 hrs relative to control
[24] = Inhibition of RTK/PI3K/AKT/mTOR signaling in human U87 cells assessed as up regulation of signal induced proliferation associated 1 like 3 gene expression at cytotoxic IC50 measured after 48 hrs relative to control
[25] = Inhibition of RTK/PI3K/AKT/mTOR signaling in human U87 cells assessed as up regulation of CTD nuclear envelope phosphatase 1 gene expression at cytotoxic IC50 measured after 48 hrs relative to control
[26] = Inhibition of RTK/PI3K/AKT/mTOR signaling in human U87 cells assessed as up regulation of dickkopf WNT signaling pathway inhibitor 1 gene expression at cytotoxic IC50 measured after 48 hrs relative to control
[27] = Inhibition of RTK/PI3K/AKT/mTOR signaling in human U87 cells assessed as up regulation of peroxiredoxin 4 gene expression at cytotoxic IC50 measured after 48 hrs relative to control
[28] = Inhibition of RTK/PI3K/AKT/mTOR signaling in human U87 cells assessed as up regulation of SH3 domain binding kinase 1 gene expression at cytotoxic IC50 measured after 48 hrs relative to control
[29] = Inhibition of RTK/PI3K/AKT/mTOR signaling in human U87 cells assessed as up regulation of URI1 gene expression at cytotoxic IC50 measured after 48 hrs relative to control
[30] = Inhibition of RTK/PI3K/AKT/mTOR signaling in human U87 cells assessed as up regulation of UAP1 gene expression at cytotoxic IC50 measured after 48 hrs relative to control
[31] = Inhibition of RTK/PI3K/AKT/mTOR signaling in human U87 cells assessed as up regulation of SYNCRIP gene expression at cytotoxic IC50 measured after 48 hrs relative to control
[32] = Inhibition of RTK/PI3K/AKT/mTOR signaling in human U87 cells assessed as up regulation of MRPL42 gene expression at cytotoxic IC50 measured after 48 hrs relative to control

CC(=O)C(=NNc1ccccc1C#N)C(C)=O
log2FC [1]: -3.54
log2FC [2]: -2.18
log2FC [3]: -1.02
log2FC [4]: -1.87
log2FC [5]: -1.45
log2FC [6]: -1.11
log2FC [7]: -1.02
log2FC [8]: -0.984
log2FC [9]: -0.964
log2FC [10]: -0.853
log2FC [11]: -0.807
log2FC [12]: -0.776
log2FC [13]: -0.753
log2FC [14]: -0.687
log2FC [15]: -0.605
log2FC [16]: -0.488
log2FC [17]: -0.452
log2FC [18]: 1.63
log2FC [19]: 1.54
log2FC [20]: 1.03
log2FC [21]: 0.987
log2FC [22]: 0.959
log2FC [23]: 0.948
log2FC [24]: 0.804
log2FC [25]: 0.76
log2FC [26]: 0.743
log2FC [27]: 0.721
log2FC [28]: 0.714
log2FC [29]: 0.639
log2FC [30]: 0.62
log2FC [31]: 0.539
log2FC [32]: 0.537
